# Assay results reported in PMC12482183.
# By UniProt entry, the sequences of proteins in these tests, tags left out.
# UniProt P0A988: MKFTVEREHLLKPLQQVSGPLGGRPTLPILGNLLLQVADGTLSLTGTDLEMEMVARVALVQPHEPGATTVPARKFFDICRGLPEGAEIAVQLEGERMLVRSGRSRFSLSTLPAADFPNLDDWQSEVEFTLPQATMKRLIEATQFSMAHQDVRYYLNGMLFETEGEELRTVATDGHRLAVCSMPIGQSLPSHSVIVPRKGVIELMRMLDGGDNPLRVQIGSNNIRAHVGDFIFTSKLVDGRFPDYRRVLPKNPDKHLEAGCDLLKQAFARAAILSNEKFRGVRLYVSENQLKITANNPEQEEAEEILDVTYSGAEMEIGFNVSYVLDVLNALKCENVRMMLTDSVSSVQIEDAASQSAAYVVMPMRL
# UniProt P0A6P1: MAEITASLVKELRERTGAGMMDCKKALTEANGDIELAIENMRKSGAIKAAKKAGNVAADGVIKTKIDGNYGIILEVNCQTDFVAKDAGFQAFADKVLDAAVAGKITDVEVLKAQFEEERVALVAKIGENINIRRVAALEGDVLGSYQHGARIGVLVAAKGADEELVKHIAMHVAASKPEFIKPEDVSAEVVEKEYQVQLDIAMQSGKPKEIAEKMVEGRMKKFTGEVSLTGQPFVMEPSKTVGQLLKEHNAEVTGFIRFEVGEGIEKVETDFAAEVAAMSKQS
# UniProt P0A6M8: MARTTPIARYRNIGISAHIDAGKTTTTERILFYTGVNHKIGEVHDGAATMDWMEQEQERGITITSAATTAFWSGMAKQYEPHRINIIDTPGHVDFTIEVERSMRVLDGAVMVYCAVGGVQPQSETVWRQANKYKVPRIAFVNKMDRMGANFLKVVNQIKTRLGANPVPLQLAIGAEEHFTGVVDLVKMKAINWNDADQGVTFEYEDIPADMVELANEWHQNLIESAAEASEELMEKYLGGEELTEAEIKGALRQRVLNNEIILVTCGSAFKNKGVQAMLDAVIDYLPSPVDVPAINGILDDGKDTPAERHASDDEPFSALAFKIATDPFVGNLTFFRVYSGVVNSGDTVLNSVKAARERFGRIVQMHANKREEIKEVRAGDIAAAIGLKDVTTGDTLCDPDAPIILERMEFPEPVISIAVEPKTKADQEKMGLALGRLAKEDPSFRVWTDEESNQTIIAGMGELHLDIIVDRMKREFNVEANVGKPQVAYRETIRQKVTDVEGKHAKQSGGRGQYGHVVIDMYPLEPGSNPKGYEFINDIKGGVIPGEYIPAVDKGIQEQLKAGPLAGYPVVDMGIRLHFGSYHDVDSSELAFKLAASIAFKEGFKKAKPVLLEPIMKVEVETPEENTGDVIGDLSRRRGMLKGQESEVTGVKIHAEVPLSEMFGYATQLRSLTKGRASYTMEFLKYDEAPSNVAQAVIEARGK
# Molecular target: His-tagged β-clamp (E. coli) (UniProt P0A988)
# Experiment: affinity purification with mass spectrometry; His-tagged β-clamp pulled down on TALON Metal Affinity Resin from E. coli BL21 extract; His-tag only control; trypsination, LC-MS/MS, LFQ
row,Molecule,binding
1,elongation factor Tsf (EF-Ts) (from UniProt P0A6P1 1-283),binds
2,elongation factor FusA (EF-G) (from UniProt P0A6M8 1-704),binds
3,"elongation factor Efp (EF-P) (protein, UniProt P0A6N4 1-188) MATYYSNDFRAGLKIMLDGEPYAVEASEFVKPGKGQAFARVKLRRLLTGTRVEKTFKSTDSAEGADVVDMNLTYLYNDGEFWHFMNNETFEQLSADAKAIGDNAKWLLDQAECIVTLWNGQPISVTPPNFVELEIVDTDPGLKGDTAGTGGKPATLSTGAVVKVPLFVQIGEVIKVDTRSGEYVSRVK",binds
4,"translation factor EttA (protein, UniProt P0A9W3 1-555) MAQFVYTMHRVGKVVPPKRHILKNISLSFFPGAKIGVLGLNGAGKSTLLRIMAGIDKDIEGEARPQPDIKIGYLPQEPQLNPEHTVRESIEEAVSEVVNALKRLDEVYALYADPDADFDKLAAEQGRLEEIIQAHDGHNLNVQLERAADALRLPDWDAKIANLSGGERRRVALCRLLLEKPDMLLLDEPTNHLDAESVAWLERFLHDFEGTVVAITHDRYFLDNVAGWILELDRGEGIPWEGNYSSWLEQKDQRLAQEASQEAARRKSIEKELEWVRQGTKGRQSKGKARLARFEELNSTEYQKRNETNELFIPPGPRLGDKVLEVSNLRKSYGDRLLIDDLSFSIPKGAIVGIIGPNGAGKSTLFRMISGQEQPDSGTITLGETVKLASVDQFRDSMDNSKTVWEEVSGGLDIMKIGNTEMPSRAYVGRFNFKGVDQGKRVGELSGGERGRLHLAKLLQVGGNMLLLDEPTNDLDIETLRALENALLEFPGCAMVISHDRWFLDRIATHILDYQDEGKVEFFEGNFTEYEEYKKRTLGADALEPKRIKYKRIAK",binds

# Results are given in words; binding and its absence hold for the method and conditions named. Binding seen in cells or lysates may run through a third protein. These calls come from enrichment with a bait or labelling near it, and not all partners need be listed.
